Test results: patent US20050214309
For at least one entry, the source does not settle the construct or the ends of the probe. For part of these data: At least one result comes from cells or an extract, where the contact may be indirect. For part of these data: A negative result means that nothing was seen under these conditions.

Chains of the proteins cited; added tags and fusions are not shown. Chains listed by the source or under a name are the forms on record and can include a tag or linker.
UniProt P16220, other isoform, or with tags, fused parts or gaps: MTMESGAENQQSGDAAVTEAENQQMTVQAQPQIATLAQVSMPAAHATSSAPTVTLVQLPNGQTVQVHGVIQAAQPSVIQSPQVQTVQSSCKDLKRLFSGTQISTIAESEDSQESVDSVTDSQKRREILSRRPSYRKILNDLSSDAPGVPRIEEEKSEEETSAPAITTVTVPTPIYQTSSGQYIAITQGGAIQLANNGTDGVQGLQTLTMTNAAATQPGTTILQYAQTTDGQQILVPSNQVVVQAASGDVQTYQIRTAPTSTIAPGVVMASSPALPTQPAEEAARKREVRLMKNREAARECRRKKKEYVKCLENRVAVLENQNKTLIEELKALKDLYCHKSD
EWS/ATF1 fusion (Homo sapiens), one chain, as listed by the source: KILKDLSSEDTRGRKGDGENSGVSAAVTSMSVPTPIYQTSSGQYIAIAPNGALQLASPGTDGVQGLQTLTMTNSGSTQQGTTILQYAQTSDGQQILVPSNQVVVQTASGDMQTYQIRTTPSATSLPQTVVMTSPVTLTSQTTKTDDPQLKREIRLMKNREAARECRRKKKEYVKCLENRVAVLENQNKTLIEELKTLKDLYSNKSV

Experiments:
[1] = biological target: CREB (Homo sapiens) (UniProt P16220); assay: EMSA; conditions: supershifted by MAb1, 3, 4; complex eliminated by sFv4; purified recombinant protein; protein details: E. coli pET-11a, DNA-cellulose purified; label: 32P
[2] = test system: EWS/ATF1 fusion (Homo sapiens); assay: EMSA; conditions: 30 C; inhibited by mAb4, supershifted by mAb5; protein in a lysate after overexpression; label: 32P
[3] = test system: EWS/ATF1 fusion (Homo sapiens); assay: competition with a labelled probe; conditions: 100-fold excess unlabeled AP1 used as specificity competitor for EWS/ATF1-CRE complex; protein in a lysate after overexpression

AGAGATTGCCTGACGTCAGAGAGCTAG (double strand) [consensus CRE]
binding result [1]: binds
binding result [2]: binds

CGCTTGATGAGTCAGCCGGAA (double strand) [AP1 oligonucleotide]
binding result [3]: no binding
